From patent publication US12729225B2, “Non-canonical SWI/SNF complex and uses thereof” (Dana-Farber Cancer Institute, Inc., priority 2018, dated 2026)

Tested on: mSWI/SNF complexes
Assay: mSWI/SNF complex purification with HA-tagged baits and mass spectrometry (peptide counts)
Design: species or system human
Conditions: 293_HA-BRD7 bait purification, mass spectrometry; for Total: total peptides per co-purified protein; for Unique: unique peptides per co-purified protein

B1: HNRNPH2 (protein, UniProt P55795 1-449, looked up)
Heterogeneous nuclear …: MMLSTEGREGFVVKVRGLPWSCSADEVMRFFSDCKIQNGTSGIRFIYTREGRPSGEAFVELESEEEVKLALKKDRETMGHRYVEVFKSNSVEMDWVLKHTGPNSPDTANDGFVRLRGLPFGCSKEEIVQFFSGLEIVPNGMTLPVDFQGRSTGEAFVQFASQEIAEKALKKHKERIGHRYIEIFKSSRAEVRTHYDPPRKLMAMQRPGPYDRPGAGRGYNSIGRGAGFERMRRGAYGGGYGGYDDYGGYNDGYGFGSDRFGRDLNYCFSGMSDHRYGDGGSSFQSTTGHCVHMRGLPYRATENDIYNFFSPLNPMRVHIEIGPDGRVTGEADVEFATHEDAVAAMAKDKANMQHRYVELFLNSTAGTSGGAYDHSYVELFLNSTAGASGGAYGSQMMGGMGLSNQSSYGGPASQQLSGGYGGGYGGQSSMSGYDQVLQENSSDYQSNLA
For B1, which Total is on record?
The Total was 2.

What about the Unique of the same molecule?
The Unique was 2.

B2: RBM34 (protein, UniProt P42696 1-430, looked up)
RNA-binding protein 34: MALEGMSKRKRKRSVQEGENPDDGVRGSPPEDYRLGQVASSLFRGEHHSRGGTGRLASLFSSLEPQIQPVYVPVPKQTIKKTKRNEEEESTSQIERPLSQEPAKKVKAKKKHTNAEKKLADRESALASADLEEEIHQKQGQKRKNSQPGVKVADRKILDDTEDTVVSQRKKIQINQEEERLKNERTVFVGNLPVTCNKKKLKSFFKEYGQIESVRFRSLIPAEGTLSKKLAAIKRKIHPDQKNINAYVVFKEESAATQALKRNGAQIADGFRIRVDLASETSSRDKRSVFVGNLPYKVEESAIEKHFLDCGSIMAVRIVRDKMTGIGKGFGYVLFENTDSVHLALKLNNSELMGRKLRVMRSVNKEKFKQQNSNPRLKNVSKPKQGLNFTSKTAEGHPKSLFIGEKAVLLKTKKKGQKKSGRPKKQRKQK
What does the source list for B2?
Total: 2; Unique: 2

B3: ATP2B1 (protein, UniProt P20020 2-1220, looked up)
Plasma membrane …: GDMANNSVAYSGVKNSLKEANHDGDFGITLAELRALMELRSTDALRKIQESYGDVYGICTKLKTSPNEGLSGNPADLERREAVFGKNFIPPKKPKTFLQLVWEALQDVTLIILEIAAIVSLGLSFYQPPEGDNALCGEVSVGEEEGEGETGWIEGAAILLSVVCVVLVTAFNDWSKEKQFRGLQSRIEQEQKFTVIRGGQVIQIPVADITVGDIAQVKYGDLLPADGILIQGNDLKIDESSLTGESDHVKKSLDKDPLLLSGTHVMEGSGRMVVTAVGVNSQTGIIFTLLGAGGEEEEKKDEKKKEKKNKKQDGAIENRNKAKAQDGAAMEMQPLKSEEGGDGDEKDKKKANLPKKEKSVLQGKLTKLAVQIGKAGLLMSAITVIILVLYFVIDTFWVQKRPWLAECTPIYIQYFVKFFIIGVTVLVVAVPEGLPLAVTISLAYSVKKMMKDNNLVRHLDACETMGNATAICSDKTGTLTMNRMTVVQAYINEKHYKKVPEPEAIPPNILSYLVTGISVNCAYTSKILPPEKEGGLPRHVGNKTECALLGLLLDLKRDYQDVRNEIPEEALYKVYTFNSVRKSMSTVLKNSDGSYRIFSKGASEIILKKCFKILSANGEAKVFRPRDRDDIVKTVIEPMASEGLRTICLAFRDFPAGEPEPEWDNENDIVTGLTCIAVVGIEDPVRPEVPDAIKKCQRAGITVRMVTGDNINTARAIATKCGILHPGEDFLCLEGKDFNRRIRNEKGEIEQERIDKIWPKLRVLARSSPTDKHTLVKGIIDSTVSDQRQVVAVTGDGTNDGPALKKADVGFAMGIAGTDVAKEASDIILTDDNFTSIVKAVMWGRNVYDSISKFLQFQLTVNVVAVIVAFTGACITQDSPLKAVQMLWVNLIMDTLASLALATEPPTESLLLRKPYGRNKPLISRTMMKNILGHAFYQLVVVFTLLFAGEKFFDIDSGRNAPLHAPPSEHYTIVFNTFVLMQLFNEINARKIHGERNVFEGIFNNAIFCTIVLGTFVVQIIIVQFGGKPFSCSELSIEQWLWSIFLGMGTLLWGQLISTIPTSRLKFLKEAGHGTQKEEIPEEELAEDVEEIDHAERELRRGQILWFRGLNRIQTQIRVVNAFRSSLYEGLEKPESRSSIHNFMTHPEFRIEDSEPHIPLIDDTDAEDDAPTKRNSSPPPSPNKNNNAVDSGIHLTIEMNKSATSSSPGSPLHSLETSL
Which results are given for B3?
Total: 2; Unique: 2

B4: KTN1 (protein, UniProt Q86UP2 1-1357, looked up)
Kinectin: MEFYESAYFIVLIPSIVITVIFLFFWLFMKETLYDEVLAKQKREQKLIPTKTDKKKAEKKKNKKKEIQNGNLHESDSESVPRDFKLSDALAVEDDQVAPVPLNVVETSSSVRERKKKEKKQKPVLEEQVIKESDASKIPGKKVEPVPVTKQPTPPSEAAASKKKPGQKKSKNGSDDQDKKVETLMVPSKRQEALPLHQETKQESGSGKKKASSKKQKTENVFVDEPLIHATTYIPLMDNADSSPVVDKREVIDLLKPDQVEGIQKSGTKKLKTETDKENAEVKFKDFLLSLKTMMFSEDEALCVVDLLKEKSGVIQDALKKSSKGELTTLIHQLQEKDKLLAAVKEDAAATKDRCKQLTQEMMTEKERSNVVITRMKDRIGTLEKEHNVFQNKIHVSYQETQQMQMKFQQVREQMEAEIAHLKQENGILRDAVSNTTNQLESKQSAELNKLRQDYARLVNELTEKTGKLQQEEVQKKNAEQAATQLKVQLQEAERRWEEVQSYIRKRTAEHEAAQQDLQSKFVAKENEVQSLHSKLTDTLVSKQQLEQRLMQLMESEQKRVNKEESLQMQVQDILEQNEALKAQIQQFHSQIAAQTSASVLAEELHKVIAEKDKQIKQTEDSLASERDRLTSKEEELKDIQNMNFLLKAEVQKLQALANEQAAAAHELEKMQQSVYVKDDKIRLLEEQLQHEISNKMEEFKILNDQNKALKSEVQKLQTLVSEQPNKDVVEQMEKCIQEKDEKLKTVEELLETGLIQVATKEEELNAIRTENSSLTKEVQDLKAKQNDQVSFASLVEELKKVIHEKDGKIKSVEELLEAELLKVANKEKTVQDLKQEIKALKEEIGNVQLEKAQQLSITSKVQELQNLLKGKEEQMNTMKAVLEEKEKDLANTGKWLQDLQEENESLKAHVQEVAQHNLKEASSASQFEELEIVLKEKENELKRLEAMLKERESDLSSKTQLLQDVQDENKLFKSQIEQLKQQNYQQASSFPPHEELLKVISEREKEISGLWNELDSLKDAVEHQRKKNNDLREKNWEAMEALASTEKMLQDKVNKTSKERQQQVEAVELEAKEVLKKLFPKVSVPSNLSYGEWLHGFEKKAKECMAGTSGSEEVKVLEHKLKEADEMHTLLQLECEKYKSVLAETEGILQKLQRSVEQEENKWKVKVDESHKTIKQMQSSFTSSEQELERLRSENKDIENLRREREHLEMELEKAEMERSTYVTEVRELKDLLTELQKKLDDSYSEAVRQNEELNLLKAQLNETLTKLRTEQNERQKVAGDLHKAQQSLELIQSKIVKAAGDTTVIENSDVSPETESSEKETMSVSLNQTVTQLQQLLQAVNQQLTKEKEHYQVLE
What does the source list for B4?
Total: 2; Unique: 2

B5: SHMT1 (protein, UniProt P34896 1-483, looked up)
Serine …: MTMPVNGAHKDADLWSSHDKMLAQPLKDSDVEVYNIIKKESNRQRVGLELIASENFASRAVLEALGSCLNNKYSEGYPGQRYYGGTEFIDELETLCQKRALQAYKLDPQCWGVNVQPYSGSPANFAVYTALVEPHGRIMGLDLPDGGHLTHGFMTDKKKISATSIFFESMPYKVNPDTGYINYDQLEENARLFHPKLIIAGTSCYSRNLEYARLRKIADENGAYLMADMAHISGLVAAGVVPSPFEHCHVVTTTTHKTLRGCRAGMIFYRKGVKSVDPKTGKEILYNLESLINSAVFPGLQGGPHNHAIAGVAVALKQAMTLEFKVYQHQVVANCRALSEALTELGYKIVTGGSDNHLILVDLRSKGTDGGRAEKVLEACSIACNKNTCPGDRSALRPSGLRLGTPALTSRGLLEKDFQKVAHFIHRGIELTLQIQSDTGVRATLKEFKERLAGDKYQAAVQALREEVESFASLFPLPGLPDF
How did the Total turn out when B5 was run?
The Total was 2.

And the Unique?
Its Unique is 2.

B6: COPB2 (protein, UniProt P35606 2-906, looked up)
Coatomer subunit beta': PLRLDIKRKLTARSDRVKSVDLHPTEPWMLASLYNGSVCVWNHETQTLVKTFEVCDLPVRAAKFVARKNWVVTGADDMQIRVFNYNTLERVHMFEAHSDYIRCIAVHPTQPFILTSSDDMLIKLWDWDKKWSCSQVFEGHTHYVMQIVINPKDNNQFASASLDRTIKVWQLGSSSPNFTLEGHEKGVNCIDYYSGGDKPYLISGADDRLVKIWDYQNKTCVQTLEGHAQNVSCASFHPELPIIITGSEDGTVRIWHSSTYRLESTLNYGMERVWCVASLRGSNNVALGYDEGSIIVKLGREEPAMSMDANGKIIWAKHSEVQQANLKAMGDAEIKDGERLPLAVKDMGSCEIYPQTIQHNPNGRFVVVCGDGEYIIYTAMALRNKSFGSAQEFAWAHDSSEYAIRESNSIVKIFKNFKEKKSFKPDFGAESIYGGFLLGVRSVNGLAFYDWDNTELIRRIEIQPKHIFWSDSGELVCIATEESFFILKYLSEKVLAAQETHEGVTEDGIEDAFEVLGEIQEIVKTGLWVGDCFIYTSSVNRLNYYVGGEIVTIAHLDRTMYLLGYIPKDNRLYLGDKELNIISYSLLVSVLEYQTAVMRRDFSMADKVLPTIPKEQRTRVAHFLEKQGFKQQALTVSTDPEHRFELALQLGELKIAYQLAVEAESEQKWKQLAELAISKCQFGLAQECLHHAQDYGGLLLLATASGNANMVNKLAEGAERDGKNNVAFMSYFLQGKVDACLELLIRTGRLPEAAFLARTYLPSQVSRVVKLWRENLSKVNQKAAESLADPTEYENLFPGLKEAFVVEEWVKETHADLWPAKQYPLVTPNEERNVMEEGKDFQPSRSTAQQELDGKPASPTPVIVASHTANKEEKSLLELEVDLDNLELEDIDTTDINLDEDILDD
B6 was tested. Which Total did it give?
Its Total is 2.

And the Unique?
The Unique was 2.

B7: CHCHD3 (protein, UniProt Q9NX63 2-227, looked up)
MICOS complex subunit MIC19: GGTTSTRRVTFEADENENITVVKGIRLSENVIDRMKESSPSGSKSQRYSGAYGASVSDEELKRRVAEELALEQAKKESEDQKRLKQAKELDRERAAANEQLTRAILRERICSEEERAKAKHLARQLEEKDRVLKKQDAFYKEQLARLEERSSEFYRVTTEQYQKAAEEVEAKFKRYESHPVCADLQAKILQCYRENTHQTLKCSALATQYMHCVNHAKQSMLEKGG
B7 was tested. Which Total did it give?
The Total was 2.

What about the Unique of the same molecule?
The Unique was 2.

B8: USP39 (protein)
chain: MSGRSKRESRGSTRGKRESESRGSSGRVKRERDREREPEAASSRGSPVRVKREFEPASAREAPASVVPFVRVKREREVDEDSEPEREVRAKNGRVDSEDRRSRHCPYLDTINRSVLDFDFEKLCSISLSHINAYACLVCGKYFQGRGLKSHAYIHSVQFSHHVFLNLHTLKFYCLPDNYEIIDSSLEDITYVLKPTFTKQQIANLDKQAKLSRAYDGTTYLPGIVGLNNIKANDYANAVLQALSNVPPLRNYFLEEDNYKNIKRPPGDIMFLLVQRFGELMRKLWNPRNFKAHVSPHEMLQAVVLCSKKTFQITKQGDGVDFLSWFLNALHSALGGTKKKKKTIVTDVFQGSMRIFTKKLPHPDLPAEEKEQLLHNDEYQETMVESTFMYLTLDLPTAPLYKDEKEQLIIPQVPLFNILAKFNGITEKEYKTYKENFLKRFQLTKLPPYLIFCIKRFTKNNFFVEKNPTIVNFPITNVDLREYLSEEVQAVHKNTTYDLIANIVHDGKPSEGSYRIHVLHHGTGKWYELQDLQVTDILPQMITLSEAYIQIWKRRDNDETNQQGA
For B8, which Total is on record?
Its Total is 2.

What about the Unique of the same molecule?
The Unique was 2.
